Among the data in paper PMC11574084 are binding values, retold here.

The chains behind the UniProt entries cited, without tags or fusion partners.
UniProt O00629: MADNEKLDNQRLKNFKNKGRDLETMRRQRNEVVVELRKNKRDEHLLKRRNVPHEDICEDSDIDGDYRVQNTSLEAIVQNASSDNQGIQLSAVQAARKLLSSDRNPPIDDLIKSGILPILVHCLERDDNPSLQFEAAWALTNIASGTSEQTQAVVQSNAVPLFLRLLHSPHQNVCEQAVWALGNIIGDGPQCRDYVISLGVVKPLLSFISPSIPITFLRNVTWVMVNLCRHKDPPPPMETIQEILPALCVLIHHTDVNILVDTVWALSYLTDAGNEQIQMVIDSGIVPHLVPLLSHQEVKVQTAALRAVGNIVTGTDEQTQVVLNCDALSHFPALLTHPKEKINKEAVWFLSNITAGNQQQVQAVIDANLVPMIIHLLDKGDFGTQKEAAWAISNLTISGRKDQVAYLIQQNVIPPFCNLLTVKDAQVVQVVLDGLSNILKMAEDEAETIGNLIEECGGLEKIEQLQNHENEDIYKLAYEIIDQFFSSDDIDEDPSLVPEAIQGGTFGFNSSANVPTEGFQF

No constants are given. Whether binding was seen depends on the method and setting. In cells and extracts the contact can be indirect. Here binding means that the protein was enriched with, or labelled near, the bait; the list need not be complete.

This experiment addresses T1, IRF1 (human (endogenous in HUVEC)) (UniProt P10914).
T1 sequence: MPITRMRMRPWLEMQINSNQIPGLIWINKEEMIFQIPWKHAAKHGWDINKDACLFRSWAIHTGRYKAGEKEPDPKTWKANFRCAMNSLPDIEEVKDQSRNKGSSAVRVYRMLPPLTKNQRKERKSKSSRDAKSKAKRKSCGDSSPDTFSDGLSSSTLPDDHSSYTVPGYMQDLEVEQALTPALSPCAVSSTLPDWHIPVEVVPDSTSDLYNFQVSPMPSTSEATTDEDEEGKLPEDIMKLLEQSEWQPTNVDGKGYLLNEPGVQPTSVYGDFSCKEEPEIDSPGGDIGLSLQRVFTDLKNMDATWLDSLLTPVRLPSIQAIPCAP
Nature of the experiment: affinity purification with mass spectrometry; LC-MS analysis of Co-IP samples made with anti-IRF1 antibody; endothelial cells.

KPNA4 (from UniProt O00629 1-521): the binding entry was “binds”.
